This data set addresses UvsX (T6) (Enterobacteria phage T6) (UniProt P04529). Put plainly: activity assay. To be noted: RPA amplification with UvsY/gp32; lower final signal than T4 UvsX; purified recombinant protein; protein details: C-terminal His6.

Consider 1 sequence from patent US20090029421, “Recombinase polymerase amplification” (published 2009).

Construct, isoform or probe ends are uncertain for at least one entry.

For the sequence “ACGGCATTAACAAACGAACTGATTCATCTGCTTGG / CCTTAATTTCTCCGAGAACTTCATATTCAAGCGTC [J1/K2 RPA primers]”, the “activity on this sequence” value is “active”.
